Results deposited as PubChem BioAssay AID1224826 (NIAID, 2016)
The deposit covers about 17,000 reagents; this is an unselected part. In the full data, about 1,110 (6.6%) are marked active. 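Active means lowered or raised reporter signal; replicate intensities are raw and not normalised per plate.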 Entries without a mark were called inactive. Not all columns of the deposit are shown. Reagent sequences are not shown.

- Assay: 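Genes that change LPS-induced Tnf promoter activity in mouse macrophages when knocked down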 (primary screen)
- System: RAW264.7 G9 macrophages from mouse bearing reporters for p65 (GFP) and the Tnf promoter (mCherry)
- Reagent: siRNA pool against mouse genes, 100 nM
- Timing: 16 h of LPS stimulation, after 2 days of siRNA transfection
- Treatment: bacterial lipopolysaccharide (Salmonella minnesota R595), 10 ng/ml
- Detection: 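Nuclear mCherry signal of the Tnf promoter reporter measured by imaging after background removal, scaled to each plate median and turned into robust z-scores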
- Reading the numbers: Tnf reporter robust z-score: higher = stronger Tnf promoter reporter signal after LPS; Tnf reporter intensity: higher = stronger Tnf promoter reporter signal
- Rule for the call: 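a well counts as active at a score of -1.3 or below (Tlr4 knock-down control median) or above 3 (raised signal); controls and wells holding fewer than 50 cells are excluded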
- Calls: active = Tnf reporter clearly lowered or raised; inactive = no clear change in Tnf reporter

| gene | Tnf reporter robust z-score | fewer than 50 cells in well | Tnf reporter intensity, replicate 1 |
| --- | --- | --- | --- |
| Olfr900 | 0.18 | enough cells in well | 95.5 |
| Zmynd10 | -0.79 | enough cells in well | 0 |
| Krt27 | -0.32 | enough cells in well | 184 |
| Srek1 | 1.51 | enough cells in well | 305 |
| Sspn | -0.15 | enough cells in well | 282 |
| Ackr1 | 1.03 | enough cells in well | 297 |
| AA986860 | -0.33 | enough cells in well | 118 |
| Pln | -0.16 | enough cells in well | 124 |
| Dnaaf11 | 1.34 | enough cells in well | 274 |
| Morn2 | 0.67 | enough cells in well | 194 |
| P3h4 | -0.81 | enough cells in well | 301 |
| Pnpo | 0.74 | enough cells in well | 299 |
| Necab1 | 0.42 | enough cells in well | 226 |
| Psma1 | 0.43 | enough cells in well | 277 |
| Cavin1 | 1.51 | enough cells in well | 200 |
| Fgb | -0.79 | enough cells in well | 149 |
| Tpd52l1 | -0.86 | enough cells in well | 202 |
| Or51h5 | – | fewer than 50 cells per well; well left out of calls | 95.8 |
| Ddah2 | -1.09 | enough cells in well | 38.6 |
| Hnrnpk | 0.8 | enough cells in well | 247 |
| Gfra4 | -0.82 | enough cells in well | 185 |
| Medag | 0.29 | enough cells in well | 173 |
| Xrcc4 | 0.22 | enough cells in well | 266 |
| Man1c1 | -0.6 | enough cells in well | 184 |
